{
  "sequences": {"note": "Amino acid sequences for entries named in this document (tags omitted). Residues count along the entry.", "UniProt P07237, residues 18-508": "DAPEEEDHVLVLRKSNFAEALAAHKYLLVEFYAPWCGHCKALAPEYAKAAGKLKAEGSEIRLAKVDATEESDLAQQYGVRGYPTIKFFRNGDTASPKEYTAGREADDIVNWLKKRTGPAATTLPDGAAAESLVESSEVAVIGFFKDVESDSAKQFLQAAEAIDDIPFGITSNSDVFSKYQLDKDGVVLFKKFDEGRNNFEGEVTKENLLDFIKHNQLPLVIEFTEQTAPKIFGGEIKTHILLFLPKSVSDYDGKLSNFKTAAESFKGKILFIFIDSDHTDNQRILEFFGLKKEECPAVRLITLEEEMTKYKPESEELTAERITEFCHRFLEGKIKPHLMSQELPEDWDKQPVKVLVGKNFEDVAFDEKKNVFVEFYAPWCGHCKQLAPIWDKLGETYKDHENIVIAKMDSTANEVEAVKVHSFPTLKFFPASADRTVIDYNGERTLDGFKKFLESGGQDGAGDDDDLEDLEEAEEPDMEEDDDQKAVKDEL"},
  "source": "patent US20240366624A1",
  "about": "“METHODS AND COMPOSITIONS FOR TREATING THROMBOTIC DISEASE” (Washington University, priority 2023, published 2024)",
  "key": {"[1]": {"target": "human platelet PDI (protein disulfide isomerase) (human) (UniProt P07237)", "assay": "co-immunoprecipitation with biotinylated polyclonal anti-PDI antibodies from lysates of resting and thrombin-treated human platelets, trypsin digestion, mass spectrometry; volcano plot thrombin versus no thrombin"}, "[2]": {"target": "T1, human platelet ERO1α (human) (UniProt Q96HE7)", "T1 sequence (looked up)": "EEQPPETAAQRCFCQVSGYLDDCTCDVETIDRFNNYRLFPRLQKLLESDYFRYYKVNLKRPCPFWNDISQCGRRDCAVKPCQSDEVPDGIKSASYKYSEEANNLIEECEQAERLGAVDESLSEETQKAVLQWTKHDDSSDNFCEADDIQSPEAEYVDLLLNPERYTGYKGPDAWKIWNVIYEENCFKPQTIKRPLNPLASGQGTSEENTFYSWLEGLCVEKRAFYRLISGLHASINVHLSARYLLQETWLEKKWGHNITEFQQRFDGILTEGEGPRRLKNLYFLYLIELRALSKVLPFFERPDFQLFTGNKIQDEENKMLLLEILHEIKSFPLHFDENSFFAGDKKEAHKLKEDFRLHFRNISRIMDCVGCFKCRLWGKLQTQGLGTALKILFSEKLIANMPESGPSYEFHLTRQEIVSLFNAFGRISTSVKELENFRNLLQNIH", "assay": "co-immunoprecipitation of ERO1α from lysates of resting and thrombin-activated human platelets, mass spectrometry; volcano plot thrombin versus no thrombin"}, "[3]": {"target": "T2, human platelet ERO1α (human), Q96HE7", "T2 chain": "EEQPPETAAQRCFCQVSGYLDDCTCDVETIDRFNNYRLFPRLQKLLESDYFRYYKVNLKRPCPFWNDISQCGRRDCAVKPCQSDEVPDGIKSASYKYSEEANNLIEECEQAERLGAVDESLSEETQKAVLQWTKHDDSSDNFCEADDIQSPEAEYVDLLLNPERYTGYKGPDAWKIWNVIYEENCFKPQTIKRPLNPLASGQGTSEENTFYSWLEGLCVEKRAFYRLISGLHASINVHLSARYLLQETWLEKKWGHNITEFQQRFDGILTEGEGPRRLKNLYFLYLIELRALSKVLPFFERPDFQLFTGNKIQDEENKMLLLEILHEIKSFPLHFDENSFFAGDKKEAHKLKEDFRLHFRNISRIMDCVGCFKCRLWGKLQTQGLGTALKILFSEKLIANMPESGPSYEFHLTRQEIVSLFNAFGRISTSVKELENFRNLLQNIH", "assay": "co-immunoprecipitation of ERO1α from lysates of resting and thrombin-activated human platelets, mass spectrometry; volcano plot thrombin versus no thrombin", "conditions": "remark: other sources report otherwise"}},
  "note": "These are yes or no findings as the source states them, for the method shown. Binding seen in cells or lysates may run through a third protein. These calls come from enrichment with a bait or labelling near it, and not all partners need be listed.",
  "data": [
    {"binder": "GRAP2 (protein, human, UniProt O75791 1-330, looked up) single chain: MEAVAKFDFTASGEDELSFHTGDVLKILSNQEEWFKAELGSQEGYVPKNFIDIQFPKWFHEGLSRHQAENLLMGKEVGFFIIRASQSSPGDFSISVRHEDDVQHFKVMRDNKGNYFLWTEKFPSLNKLVDYYRTNSISRQKQIFLRDRTREDQGHRGNSLDRRSQGGPHLSGAVGEEIRPSMNRKLSDHPPTLPLQQHQHQPQPPQYAPAPQQLQQPPQQRYLQHHHFHQERRGGSLDINDGHCGTGLGSEMNAALMHRRHTDPVQLQAAGRVRWARALYDFEALEDDELGFHSGEVVEVLDSSNPSWWTGRLHNKLGLFPANYVAPMTR", "values": [
      {"measurement": "binding", "setting": "[1]", "result": "binds"}
    ]},
    {"binder": "RGS18 (protein, human, UniProt Q9NS28 1-235, looked up) single chain: METTLLFFSQINMCESKEKTFFKLIHGSGKEETSKEAKIRAKEKRNRLSLLVQKPEFHEDTRSSRSGHLAKETRVSPEEAVKWGESFDKLLSHRDGLEAFTRFLKTEFSEENIEFWIACEDFKKSKGPQQIHLKAKAIYEKFIQTDAPKEVNLDFHTKEVITNSITQPTLHSFDAAQSRVYQLMEQDSYTRFLKSDIYLDLMEGRPQRPTNLRRRSRSFTCNEFQDVQSDVAIWL", "values": [
      {"measurement": "binding", "setting": "[2]", "result": "binds"}
    ]},
    {"binder": "MYO1F (protein, human, UniProt O00160 1-1098, looked up) single chain: MGSKERFHWQSHNVKQSGVDDMVLLPQITEDAIAANLRKRFMDDYIFTYIGSVLISVNPFKQMPYFTDREIDLYQGAAQYENPPHIYALTDNMYRNMLIDCENQCVIISGESGAGKTVAAKYIMGYISKVSGGGEKVQHVKDIILQSNPLLEAFGNAKTVRNNNSSRFGKYFEIQFSRGGEPDGGKISNFLLEKSRVVMQNENERNFHIYYQLLEGASQEQRQNLGLMTPDYYYYLNQSDTYQVDGTDDRSDFGETLSAMQVIGIPPSIQQLVLQLVAGILHLGNISFCEDGNYARVESVDLLAFPAYLLGIDSGRLQEKLTSRKMDSRWGGRSESINVTLNVEQAAYTRDALAKGLYARLFDFLVEAINRAMQKPQEEYSIGVLDIYGFEIFQKNGFEQFCINFVNEKLQQIFIELTLKAEQEEYVQEGIRWTPIQYFNNKVVCDLIENKLSPPGIMSVLDDVCATMHATGGGADQTLLQKLQAAVGTHEHFNSWSAGFVIHHYAGKVSYDVSGFCERNRDVLFSDLIELMQTSEQAFLRMLFPEKLDGDKKGRPSTAGSKIKKQANDLVATLMRCTPHYIRCIKPNETKRPRDWEENRVKHQVEYLGLKENIRVRRAGFAYRRQFAKFLQRYAILTPETWPRWRGDERQGVQHLLRAVNMEPDQYQMGSTKVFVKNPESLFLLEEVRERKFDGFARTIQKAWRRHVAVRKYEEMREEASNILLNKKERRRNSINRNFVGDYLGLEERPELRQFLGKRERVDFADSVTKYDRRFKPIKRDLILTPKCVYVIGREKVKKGPEKGQVCEVLKKKVDIQALRGVSLSTRQDDFFILQEDAADSFLESVFKTEFVSLLCKRFEEATRRPLPLTFSDTLQFRVKKEGWGGGGTRSVTFSRGFGDLAVLKVGGRTLTVSVGDGLPKSSKPTRKGMAKGKPRRSSQAPTRAAPAPPRGMDRNGVPPSARGGPLPLEIMSGGGTHRPPRGPPSTSLGASRRPRARPPSEHNTEFLNVPDQGMAGMQRKRSVGQRPVPGVGRPKPQPRTHGPRCRALYQYVGQDVDELSFNVNEVIEILMEDPSGWWKGRLHGQEGLFPGNYVEKI", "values": [
      {"measurement": "binding", "setting": "[2]", "result": "binds"}
    ]},
    {"binder": "PDIA3, P30101 (enzyme, human, UniProt P30101 25-505, looked up) single chain: SDVLELTDDNFESRISDTGSAGLMLVEFFAPWCGHCKRLAPEYEAAATRLKGIVPLAKVDCTANTNTCNKYGVSGYPTLKIFRDGEEAGAYDGPRTADGIVSHLKKQAGPASVPLRTEEEFKKFISDKDASIVGFFDDSFSEAHSEFLKAASNLRDNYRFAHTNVESLVNEYDDNGEGIILFRPSHLTNKFEDKTVAYTEQKMTSGKIKKFIQENIFGICPHMTEDNKDLIQGKDLLIAYYDVDYEKNAKGSNYWRNRVMMVAKKFLDAGHKLNFAVASRKTFSHELSDFGLESTAGEIPVVAIRTAKGEKFVMQEEFSRDGKALERFLQDYFDGNLKRYLKSEPIPESNDGPVKVVVAENFDEIVNNENKDVLIEFYAPWCGHCKNLEPKYKELGEKLSKDPNIVIAKMDATANDVPSPYEVRGFPTIYFSPANKKLNPKKYEGGRELSDFISYLQREATNPPVIQEEKPKKKKKAQEDL", "values": [
      {"measurement": "binding", "setting": "[3]", "result": "binds"}
    ]},
    {"binder": "SERPINE2 (protein, human, UniProt P07093 20-398, looked up) single chain: SHFNPLSLEELGSNTGIQVFNQIVKSRPHDNIVISPHGIASVLGMLQLGADGRTKKQLAMVMRYGVNGVGKILKKINKAIVSKKNKDIVTVANAVFVKNASEIEVPFVTRNKDVFQCEVRNVNFEDPASACDSINAWVKNETRDMIDNLLSPDLIDGVLTRLVLVNAVYFKGLWKSRFQPENTKKRTFVAADGKSYQVPMLAQLSVFRCGSTSAPNDLWYNFIELPYHGESISMLIALPTESSTPLSAIIPHISTKTIDSWMSIMVPKRVQVILPKFTAVAQTDLKEPLKVLGITDMFDSSKANFAKITTGSENLHVSHILQKAKIEVSEDGTKASAATTAILIARSSPPWFIVDRPFLFFIRHNPTGAVLFMGQINKP", "values": [
      {"measurement": "binding", "setting": "[2]", "result": "binds"}
    ]}
  ]
}
